Assay results published in PMC4735525.
No constants are given. Whether binding was seen depends on the method and setting. Binding seen in cells or lysates may run through a third protein. Some binding calls cover weakened binding; strength is not graded here.

By UniProt entry, the sequences of proteins in these tests, tags left out.
UniProt Q16665: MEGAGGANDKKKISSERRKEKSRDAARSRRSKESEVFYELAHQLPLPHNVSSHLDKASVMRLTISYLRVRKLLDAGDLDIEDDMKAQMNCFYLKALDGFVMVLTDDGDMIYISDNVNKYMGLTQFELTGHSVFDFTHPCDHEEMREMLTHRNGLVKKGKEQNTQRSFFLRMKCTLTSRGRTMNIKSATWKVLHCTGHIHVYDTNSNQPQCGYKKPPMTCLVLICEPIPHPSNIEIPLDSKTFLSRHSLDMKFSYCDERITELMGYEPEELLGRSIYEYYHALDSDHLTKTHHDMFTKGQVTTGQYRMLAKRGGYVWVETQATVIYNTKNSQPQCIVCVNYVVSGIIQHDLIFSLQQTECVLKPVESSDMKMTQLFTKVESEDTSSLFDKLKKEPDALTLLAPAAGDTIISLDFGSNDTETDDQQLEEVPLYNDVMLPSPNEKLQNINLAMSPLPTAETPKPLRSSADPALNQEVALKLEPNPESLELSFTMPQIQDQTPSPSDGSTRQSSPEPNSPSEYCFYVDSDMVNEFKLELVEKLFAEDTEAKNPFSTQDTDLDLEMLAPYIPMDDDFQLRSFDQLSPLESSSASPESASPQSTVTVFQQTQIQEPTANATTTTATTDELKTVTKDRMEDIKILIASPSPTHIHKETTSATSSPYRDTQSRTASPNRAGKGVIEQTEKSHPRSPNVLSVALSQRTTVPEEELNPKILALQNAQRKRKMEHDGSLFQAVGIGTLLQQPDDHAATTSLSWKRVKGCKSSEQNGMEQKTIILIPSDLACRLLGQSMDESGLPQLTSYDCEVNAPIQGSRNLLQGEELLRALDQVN

Molecular target: Hypoxia-inducible factor-1α (HIF-1α), endogenous in HeLa cells (human (endogenous in HeLa)) (UniProt Q16665)
Test: co-IP; endogenous proteins; HeLa cells in hypoxic chamber and/or 5 uM MG132 for 6 h; total cell lysates in EBC200 buffer (50 mM Tris-HCl pH 8, 200 mM NaCl, 0.5% NP-40), antibody overnight at 4 °C, protein G/A-Sepharose, five washes in IP150 buffer, immunoblot

B1: SET7/9 methyltransferase, endogenous in HeLa cells (enzyme, UniProt Q8WTS6 1-366)
chain: MDSDDEMVEEAVEGHLDDDGLPHGFCTVTYSSTDRFEGNFVHGEKNGRGKFFFFDGSTLEGYYVDDALQGQGVYTYEDGGVLQGTYVDGELNGPAQEYDTDGRLIFKGQYKDNIRHGVCWIYYPDGGSLVGEVNEDGEMTGEKIAYVYPDERTALYGKFIDGEMIEGKLATLMSTEEGRPHFELMPGNSVYHFDKSTSSCISTNALLPDPYESERVYVAESLISSAGEGLFSKVAVGPNTVMSFYNGVRITHQEVDSRDWALNGNTLSLDEETVIDVPEPYNHVSKYCASLGHKANHSFTPNCIYDMFVHPRFGPIKCIRTLRAVEADEELTVAYGYDHSPPGKSGPEAPEWYQVELKAFQATQQK
For B1, which binding is on record?
Its binding is “binds”.
